PubChem BioAssay AID686938, Drosophila RNAi Screening Center, 2013

Test: 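Knock-downs reducing store-operated calcium influx in Drosophila cells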 (primary screen)
Cells: Drosophila S2R+ cells
Reagents: long dsRNA against Drosophila genes, about 0.25 µg dsRNA per well, roughly 10,000 cells
Duration: 5 days of knock-down before the calcium assay
Conditions: thapsigargin (SERCA pump blocker) to empty calcium stores; entry signal taken 4 min after adding it
Measurement: 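Duplicate raw fluo-4 intensities per well from a plate reader, at rest and four minutes after thapsigargin emptied calcium stores; entry-to-rest ratio filled for only some wells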
Direction: calcium entry signal: higher = stronger calcium signal after store depletion; resting calcium signal: higher = higher resting calcium signal
Units: calcium entry signal in fluorescence units; resting calcium signal in fluorescence units
Hit rule: 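Hit if the duplicate-averaged plate z-score for entry over resting signal is under −3; wells with weak total dye signal (Fmax z < −2) or more than 5 off-targets removed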
Meaning of the calls: active = strongly reduced calcium entry; inactive = no strong reduction
The screen tested about 23,000 reagents; this is an unselected part of those that have a named target and a result. Over the whole deposit, 75 (0.33%) got an active call. 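Raw plate signals without normalisation; calls rest on plate z-scores that were not deposited; ratio present for only 364 wells.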 The numbers tell different reagents against one gene apart. Names joined by + are all predicted targets of the reagent. Not given: the dose of the treatment.

CG31097: calcium entry signal, replicate 1 = 3.49e7; calcium entry signal, replicate 2 = 4.56e7; resting calcium signal, replicate 1 = 1.90e7; resting calcium signal, replicate 2 = 2.05e7; activity call = inactive
CG11842: calcium entry signal, replicate 1 = 2.67e7; calcium entry signal, replicate 2 = 2.43e7; resting calcium signal, replicate 1 = 1.37e7; resting calcium signal, replicate 2 = 1.14e7; activity call = inactive
CG6118 #1: calcium entry signal, replicate 1 = 1.78e7; calcium entry signal, replicate 2 = 2.92e7; resting calcium signal, replicate 1 = 9.50e6; resting calcium signal, replicate 2 = 4.63e7; activity call = inactive
CG6118 #2: calcium entry signal, replicate 1 = 4.84e7; calcium entry signal, replicate 2 = 2.88e7; resting calcium signal, replicate 1 = 2.27e7; resting calcium signal, replicate 2 = 1.33e7; activity call = inactive
CG34460: calcium entry signal, replicate 1 = 3.49e7; calcium entry signal, replicate 2 = 3.70e7; resting calcium signal, replicate 1 = 1.47e7; resting calcium signal, replicate 2 = 1.80e7; activity call = inactive
CG31041: calcium entry signal, replicate 1 = 3.84e7; calcium entry signal, replicate 2 = 3.92e7; resting calcium signal, replicate 1 = 1.73e7; resting calcium signal, replicate 2 = 2.11e7; activity call = inactive
CG32192: calcium entry signal, replicate 1 = 4.37e7; calcium entry signal, replicate 2 = 2.99e7; resting calcium signal, replicate 1 = 2.47e7; resting calcium signal, replicate 2 = 1.46e7; activity call = inactive
RpS5b (Ribosomal protein S5b): calcium entry signal, replicate 1 = 2.72e7; calcium entry signal, replicate 2 = 5.28e7; resting calcium signal, replicate 1 = 1.52e7; resting calcium signal, replicate 2 = 6.48e7; activity call = inactive
CG32241 #1: calcium entry signal, replicate 1 = 4.99e7; calcium entry signal, replicate 2 = 3.16e7; resting calcium signal, replicate 1 = 2.81e7; resting calcium signal, replicate 2 = 1.56e7; activity call = inactive
CG32241 #2: calcium entry signal, replicate 1 = 4.36e7; calcium entry signal, replicate 2 = 3.90e7; resting calcium signal, replicate 1 = 2.33e7; resting calcium signal, replicate 2 = 1.81e7; activity call = inactive
CG12546 + CG14452: calcium entry signal, replicate 1 = 2.08e7; calcium entry signal, replicate 2 = 2.97e7; resting calcium signal, replicate 1 = 1.01e7; resting calcium signal, replicate 2 = 1.43e7; activity call = inactive
SrpRalpha (Signal recognition particle receptor alpha): calcium entry signal, replicate 1 = 2.38e7; calcium entry signal, replicate 2 = 3.57e7; resting calcium signal, replicate 1 = 1.22e7; resting calcium signal, replicate 2 = 1.65e7; activity call = inactive
dve (defective proventriculus): calcium entry signal, replicate 1 = 4.60e7; calcium entry signal, replicate 2 = 4.46e7; resting calcium signal, replicate 1 = 2.19e7; resting calcium signal, replicate 2 = 2.06e7; activity call = inactive
CG7231: calcium entry signal, replicate 1 = 2.94e7; calcium entry signal, replicate 2 = 4.22e7; resting calcium signal, replicate 1 = 1.51e7; resting calcium signal, replicate 2 = 1.82e7; activity call = inactive
PGAP2 (Post-GPI attachment to proteins 2): calcium entry signal, replicate 1 = 1.39e7; resting calcium signal, replicate 1 = 1.05e7; activity call = inactive
CG15209: calcium entry signal, replicate 1 = 5.34e7; calcium entry signal, replicate 2 = 4.12e7; resting calcium signal, replicate 1 = 2.22e7; resting calcium signal, replicate 2 = 1.72e7; activity call = inactive
CG9801: calcium entry signal, replicate 1 = 3.23e7; calcium entry signal, replicate 2 = 3.79e7; resting calcium signal, replicate 1 = 1.45e7; resting calcium signal, replicate 2 = 1.59e7; activity call = inactive
Cpr35B (Cuticular protein 35B) #1: calcium entry signal, replicate 1 = 4.78e7; calcium entry signal, replicate 2 = 3.31e7; resting calcium signal, replicate 1 = 2.20e7; resting calcium signal, replicate 2 = 1.63e7; activity call = inactive
Cpr35B (Cuticular protein 35B) #2: calcium entry signal, replicate 1 = 3.96e7; calcium entry signal, replicate 2 = 3.69e7; resting calcium signal, replicate 1 = 1.97e7; resting calcium signal, replicate 2 = 1.73e7; activity call = inactive
CG31279: calcium entry signal, replicate 1 = 2.51e7; calcium entry signal, replicate 2 = 3.29e7; resting calcium signal, replicate 1 = 1.35e7; resting calcium signal, replicate 2 = 1.67e7; activity call = inactive
CG7079: calcium entry signal, replicate 1 = 4.33e7; calcium entry signal, replicate 2 = 3.97e7; resting calcium signal, replicate 1 = 5.79e7; resting calcium signal, replicate 2 = 1.83e7; activity call = inactive
